{"source": "patent US20050004007A1", "about": "“Promotion of adoptosis in cancer cells by co-administration of cyclin dependent kinase inhibitiors and cellular differentiation agents” (priority 2000, published 2005)", "key": {"[1]": {"system": "U937 human leukemia cells", "assay": "morphological assessment of apoptosis (Wright and Giemsa-stained cytospin)", "assay_type": "cell-based", "conditions": "1 mM SB or 100 nM FP alone, 24 h or 48 h", "excerpt": "Cell culture. The myelomonocytic leukemia cell line U937 was derived from a patient with histiocytic lymphoma and was obtained from American Type Culture Collection. The HL-60 cell line was derived from a patient with acute promyelocytic leukemia as previously described [Grant et al. 1992]. U937 and HL-60 cells were maintained in logarithmic growth phase by culturing in suspension in phenol red-free RPMI-1640 (Life Technologies, Inc., Grand Island, N.Y.) and 10% (v/v) fetal calf serum (Hyclone, Logan, Utah), in a humidified atmosphere (95% air/5% CO2) at 37° C. To obtain antisense-expressing cell lines, U937 cells were transfected by electroporation with a pREP4 vector (Invitrogen; Carlsbad, Calif.) or the pREP4 vector containing the p21^WAF1/CIP1 coding region in an antisense orientation as previously described [Wang et al. 1999]. […]\nMorphological assessment of apoptosis. U937 cells were evaluated for apoptosis by morphological assessment of Wright and Giemsa-stained cytospin preparations. At designated times, cells were transferred to slides by cytocentrifugation, fixed, stained, and evaluated under light microscopy for treatment-induced apoptosis. […] Five or more randomly selected fields, encompassing a total≧500 cells/slide, were evaluated to determine the percentage of apoptotic cells for each treatment condition."}, "blasts from AML patients": {"system": "blasts from AML patients", "assay": "morphological assessment of apoptosis in primary leukemic blasts", "assay_type": "cell-based, human", "conditions": "24 hours; 75 nM or 100 nM FP, 1 mM SB alone; combination 100 nM FP and 1 mM SB; two patients"}}, "note": "Some results were stated once for a whole list of compounds, not compound by compound.", "data": [{"smiles": "CCCC(=O)[O-].[Na+]", "note": "[SB, sodium butyrate]", "values": [{"measurement": "percentage of apoptotic cells", "setting": "[1]", "result": "≤ 15", "unit": "%"}, {"measurement": "extent of apoptosis", "setting": "blasts from AML patients", "result": "15-20%"}]}]}
